Data taken from the supplement of paper PMC12823440, “Inhibitors supercharge kinase turnover through native proteolytic circuits” (Nature, 2025).
Where a name gives a salt, the structure may show the parent alone. This is one part of the list. Hit calls seldom repeat between salt and free forms of one compound.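 Kinases were expressed as nanoluciferase fusions in K562 cells and luminescence was read every 4 h between 2 and 18 h as percent of control, DMSO set to 100% and a positive control to 0%. A time point counts as decreased when the signal drops significantly (2 sigma). The hit call is the authors' own, does not follow from the count of time points alone, and its rule is not shown.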

Sequences of proteins named here, by UniProt entry; tags and fusion partners are left off. A change or cut given only in a name is not applied to a line headed by its entry.
UniProt O15530: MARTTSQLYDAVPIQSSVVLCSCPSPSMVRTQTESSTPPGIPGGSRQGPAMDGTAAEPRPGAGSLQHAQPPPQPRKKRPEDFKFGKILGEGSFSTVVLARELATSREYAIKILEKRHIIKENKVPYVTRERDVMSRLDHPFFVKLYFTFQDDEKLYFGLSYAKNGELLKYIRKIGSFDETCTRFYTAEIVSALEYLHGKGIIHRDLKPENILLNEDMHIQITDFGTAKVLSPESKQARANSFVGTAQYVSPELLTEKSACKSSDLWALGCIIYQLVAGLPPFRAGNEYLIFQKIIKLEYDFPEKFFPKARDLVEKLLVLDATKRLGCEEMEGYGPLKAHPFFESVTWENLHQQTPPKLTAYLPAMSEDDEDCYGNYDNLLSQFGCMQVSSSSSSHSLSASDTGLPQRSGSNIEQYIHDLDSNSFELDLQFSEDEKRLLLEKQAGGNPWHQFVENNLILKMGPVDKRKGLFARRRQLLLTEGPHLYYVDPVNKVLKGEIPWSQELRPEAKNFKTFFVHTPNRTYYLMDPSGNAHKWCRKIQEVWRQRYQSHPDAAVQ
UniProt P42356, whole entry, looked up: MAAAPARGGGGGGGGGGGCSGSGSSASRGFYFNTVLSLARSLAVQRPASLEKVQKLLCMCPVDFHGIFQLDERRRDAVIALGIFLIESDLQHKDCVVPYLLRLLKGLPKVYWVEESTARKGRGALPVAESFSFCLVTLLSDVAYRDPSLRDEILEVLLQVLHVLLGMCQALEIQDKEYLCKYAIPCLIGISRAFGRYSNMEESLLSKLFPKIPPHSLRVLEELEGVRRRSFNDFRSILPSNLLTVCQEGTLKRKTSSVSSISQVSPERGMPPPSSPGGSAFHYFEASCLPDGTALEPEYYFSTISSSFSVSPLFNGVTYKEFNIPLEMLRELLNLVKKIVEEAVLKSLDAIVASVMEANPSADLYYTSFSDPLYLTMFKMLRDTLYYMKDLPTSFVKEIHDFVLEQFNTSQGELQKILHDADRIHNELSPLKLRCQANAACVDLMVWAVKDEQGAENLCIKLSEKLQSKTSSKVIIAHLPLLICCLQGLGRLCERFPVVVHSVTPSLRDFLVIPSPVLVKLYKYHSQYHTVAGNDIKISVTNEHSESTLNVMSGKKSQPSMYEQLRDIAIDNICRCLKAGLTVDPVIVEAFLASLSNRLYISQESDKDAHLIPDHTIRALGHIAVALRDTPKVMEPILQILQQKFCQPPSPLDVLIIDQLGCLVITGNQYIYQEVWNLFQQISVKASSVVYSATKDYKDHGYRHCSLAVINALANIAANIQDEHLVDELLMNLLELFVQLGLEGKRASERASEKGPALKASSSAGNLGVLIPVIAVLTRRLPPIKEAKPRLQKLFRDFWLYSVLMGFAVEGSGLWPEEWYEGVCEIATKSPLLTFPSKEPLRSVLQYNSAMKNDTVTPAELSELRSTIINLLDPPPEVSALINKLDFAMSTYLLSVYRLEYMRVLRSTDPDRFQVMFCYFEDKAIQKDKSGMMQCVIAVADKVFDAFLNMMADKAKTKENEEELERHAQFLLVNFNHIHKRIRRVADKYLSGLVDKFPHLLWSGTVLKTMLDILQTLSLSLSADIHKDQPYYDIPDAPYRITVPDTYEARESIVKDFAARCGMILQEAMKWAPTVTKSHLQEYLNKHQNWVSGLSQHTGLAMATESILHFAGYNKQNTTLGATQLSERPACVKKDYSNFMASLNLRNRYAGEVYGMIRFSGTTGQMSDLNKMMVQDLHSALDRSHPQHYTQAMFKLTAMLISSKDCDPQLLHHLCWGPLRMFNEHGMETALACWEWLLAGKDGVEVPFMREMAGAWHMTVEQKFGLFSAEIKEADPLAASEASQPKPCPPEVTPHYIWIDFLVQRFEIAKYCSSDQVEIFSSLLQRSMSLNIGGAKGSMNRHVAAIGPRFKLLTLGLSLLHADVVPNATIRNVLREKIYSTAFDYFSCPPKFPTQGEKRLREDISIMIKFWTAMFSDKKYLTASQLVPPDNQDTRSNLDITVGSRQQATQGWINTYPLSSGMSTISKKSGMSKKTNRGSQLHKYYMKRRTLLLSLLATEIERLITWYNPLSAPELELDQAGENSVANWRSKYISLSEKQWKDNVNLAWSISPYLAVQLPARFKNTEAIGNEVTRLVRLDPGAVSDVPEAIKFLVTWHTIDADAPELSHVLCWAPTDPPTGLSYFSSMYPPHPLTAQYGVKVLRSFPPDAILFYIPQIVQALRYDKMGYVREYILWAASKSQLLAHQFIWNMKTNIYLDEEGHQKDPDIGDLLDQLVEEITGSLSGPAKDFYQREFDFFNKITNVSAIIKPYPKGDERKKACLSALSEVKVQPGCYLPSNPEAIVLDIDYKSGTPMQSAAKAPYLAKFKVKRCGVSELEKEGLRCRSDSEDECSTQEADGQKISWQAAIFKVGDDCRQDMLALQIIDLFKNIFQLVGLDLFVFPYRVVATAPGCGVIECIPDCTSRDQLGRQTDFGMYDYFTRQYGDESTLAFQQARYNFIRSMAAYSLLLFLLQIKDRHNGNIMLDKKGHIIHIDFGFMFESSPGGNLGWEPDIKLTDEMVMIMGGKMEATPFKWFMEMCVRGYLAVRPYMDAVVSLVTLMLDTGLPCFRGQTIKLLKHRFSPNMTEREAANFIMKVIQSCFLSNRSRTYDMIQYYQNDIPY
UniProt P53350, whole entry: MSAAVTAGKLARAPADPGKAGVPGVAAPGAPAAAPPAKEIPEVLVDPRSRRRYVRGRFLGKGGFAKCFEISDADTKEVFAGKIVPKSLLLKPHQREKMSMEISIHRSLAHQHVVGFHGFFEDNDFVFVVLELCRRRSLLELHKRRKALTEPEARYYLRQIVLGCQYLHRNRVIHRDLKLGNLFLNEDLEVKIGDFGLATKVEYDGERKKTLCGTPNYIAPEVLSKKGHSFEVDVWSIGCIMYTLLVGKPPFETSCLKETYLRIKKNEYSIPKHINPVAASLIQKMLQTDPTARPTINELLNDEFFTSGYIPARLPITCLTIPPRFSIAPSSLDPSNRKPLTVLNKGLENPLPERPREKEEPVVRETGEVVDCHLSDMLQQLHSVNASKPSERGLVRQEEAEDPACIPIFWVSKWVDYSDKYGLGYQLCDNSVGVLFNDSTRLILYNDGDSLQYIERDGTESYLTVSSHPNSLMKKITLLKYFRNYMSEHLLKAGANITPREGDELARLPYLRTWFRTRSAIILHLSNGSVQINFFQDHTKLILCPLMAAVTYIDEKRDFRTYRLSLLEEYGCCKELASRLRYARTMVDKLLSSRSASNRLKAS
UniProt Q13131: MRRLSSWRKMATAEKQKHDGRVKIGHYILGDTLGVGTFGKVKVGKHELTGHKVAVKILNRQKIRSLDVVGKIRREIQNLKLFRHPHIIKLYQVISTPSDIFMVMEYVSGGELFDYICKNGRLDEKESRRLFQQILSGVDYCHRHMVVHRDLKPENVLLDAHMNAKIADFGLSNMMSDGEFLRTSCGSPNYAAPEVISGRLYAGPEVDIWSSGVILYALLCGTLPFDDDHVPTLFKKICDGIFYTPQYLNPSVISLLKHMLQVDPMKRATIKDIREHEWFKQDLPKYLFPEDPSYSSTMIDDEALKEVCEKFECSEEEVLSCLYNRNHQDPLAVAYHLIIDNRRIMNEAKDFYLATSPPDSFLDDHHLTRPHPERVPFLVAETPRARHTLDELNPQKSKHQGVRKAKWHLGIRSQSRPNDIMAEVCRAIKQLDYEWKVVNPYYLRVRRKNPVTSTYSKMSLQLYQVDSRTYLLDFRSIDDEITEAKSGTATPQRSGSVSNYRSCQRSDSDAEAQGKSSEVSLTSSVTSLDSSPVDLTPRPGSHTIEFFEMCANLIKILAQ
UniProt Q05397, whole entry, looked up: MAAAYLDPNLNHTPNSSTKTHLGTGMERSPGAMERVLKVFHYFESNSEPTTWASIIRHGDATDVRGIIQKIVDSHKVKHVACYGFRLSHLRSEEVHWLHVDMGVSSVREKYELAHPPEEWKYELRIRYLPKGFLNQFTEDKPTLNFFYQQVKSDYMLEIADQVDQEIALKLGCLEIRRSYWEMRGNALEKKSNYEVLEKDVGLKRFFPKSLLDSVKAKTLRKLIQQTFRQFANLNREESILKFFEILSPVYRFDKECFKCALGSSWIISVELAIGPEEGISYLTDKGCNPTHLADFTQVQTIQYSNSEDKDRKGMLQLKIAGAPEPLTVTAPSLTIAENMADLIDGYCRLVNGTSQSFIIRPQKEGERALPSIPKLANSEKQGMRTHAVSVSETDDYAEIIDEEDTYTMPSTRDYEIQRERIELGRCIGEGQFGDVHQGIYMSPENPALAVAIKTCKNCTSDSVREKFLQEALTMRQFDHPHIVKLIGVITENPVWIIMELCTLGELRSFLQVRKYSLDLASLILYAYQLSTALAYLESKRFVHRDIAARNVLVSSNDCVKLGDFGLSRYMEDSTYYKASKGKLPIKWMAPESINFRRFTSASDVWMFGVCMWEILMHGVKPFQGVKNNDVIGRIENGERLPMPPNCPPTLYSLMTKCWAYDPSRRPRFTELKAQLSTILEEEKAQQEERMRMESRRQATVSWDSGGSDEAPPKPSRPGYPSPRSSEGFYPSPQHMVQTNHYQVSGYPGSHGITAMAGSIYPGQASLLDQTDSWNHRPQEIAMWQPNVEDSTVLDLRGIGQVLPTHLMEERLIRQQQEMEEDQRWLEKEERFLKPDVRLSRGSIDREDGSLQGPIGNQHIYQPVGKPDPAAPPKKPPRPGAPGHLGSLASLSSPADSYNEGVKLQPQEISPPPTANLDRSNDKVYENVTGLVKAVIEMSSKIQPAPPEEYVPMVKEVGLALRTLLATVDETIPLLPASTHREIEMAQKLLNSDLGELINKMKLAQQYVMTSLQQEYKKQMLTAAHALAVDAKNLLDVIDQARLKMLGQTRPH
UniProt Q14289, whole entry, looked up: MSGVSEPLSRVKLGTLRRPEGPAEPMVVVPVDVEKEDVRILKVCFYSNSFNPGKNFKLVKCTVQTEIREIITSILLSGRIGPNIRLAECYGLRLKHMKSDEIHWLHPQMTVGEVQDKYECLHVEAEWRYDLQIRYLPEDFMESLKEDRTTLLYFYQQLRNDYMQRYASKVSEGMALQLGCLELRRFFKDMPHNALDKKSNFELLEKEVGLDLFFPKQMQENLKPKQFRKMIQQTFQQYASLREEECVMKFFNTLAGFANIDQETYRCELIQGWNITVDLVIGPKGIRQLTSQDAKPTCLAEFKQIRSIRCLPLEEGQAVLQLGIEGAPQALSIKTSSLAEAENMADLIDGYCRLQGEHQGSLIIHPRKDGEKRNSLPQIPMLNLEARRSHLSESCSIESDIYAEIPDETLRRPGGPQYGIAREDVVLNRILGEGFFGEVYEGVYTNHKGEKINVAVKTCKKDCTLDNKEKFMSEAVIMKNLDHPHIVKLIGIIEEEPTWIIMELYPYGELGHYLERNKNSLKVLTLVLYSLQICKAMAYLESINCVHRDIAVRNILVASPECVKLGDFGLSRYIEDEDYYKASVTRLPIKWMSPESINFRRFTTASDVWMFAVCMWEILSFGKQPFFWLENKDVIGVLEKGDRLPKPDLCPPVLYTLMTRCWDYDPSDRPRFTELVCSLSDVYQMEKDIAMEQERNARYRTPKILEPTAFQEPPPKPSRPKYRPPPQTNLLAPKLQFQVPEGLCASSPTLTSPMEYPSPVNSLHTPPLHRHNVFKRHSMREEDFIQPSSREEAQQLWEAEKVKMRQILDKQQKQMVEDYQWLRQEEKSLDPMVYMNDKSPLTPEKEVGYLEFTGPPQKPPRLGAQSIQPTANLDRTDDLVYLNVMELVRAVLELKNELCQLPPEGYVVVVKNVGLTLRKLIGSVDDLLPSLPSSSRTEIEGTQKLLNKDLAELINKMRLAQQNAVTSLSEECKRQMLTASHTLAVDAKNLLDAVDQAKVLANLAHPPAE

What was measured:
Test in all cases: kinase-Nluc reporter destabilization hit call (1 = scored as downregulated) (binary); higher = compound decreases kinase abundance
Conditions in all cases: K562; 2-18 h
PDPK1 = PDPK1 (UniProt O15530)
PIK4CA = PIK4CA (UniProt P42356)
PIK4CB = PIK4CB (UniProt Q9UBF8)
PLK1 = PLK1 (UniProt P53350)
PRKAA1 = PRKAA1 (UniProt Q13131)
PRKCA = PRKCA (UniProt P17252)
PTK2 = PTK2 (UniProt Q05397)
PTK2B = PTK2B (UniProt Q14289)
RAF1 = RAF1 (UniProt P04049)
[1] = target: RAF1_S257L (clone: RAF1_mut) (UniProt P04049)

Structure (SMILES)	kinase-Nluc reporter destabilization hit call (PDPK1)	kinase-Nluc reporter destabilization hit call (PIK4CA)	kinase-Nluc reporter destabilization hit call (PIK4CB)	kinase-Nluc reporter destabilization hit call (PLK1)	kinase-Nluc reporter destabilization hit call (PRKAA1)	kinase-Nluc reporter destabilization hit call (PRKCA)	kinase-Nluc reporter destabilization hit call (PTK2)	kinase-Nluc reporter destabilization hit call (PTK2B)	kinase-Nluc reporter destabilization hit call (RAF1)	kinase-Nluc reporter destabilization hit call [1]
CCc1c[nH]c2ncnc(N3CC[C@](N)(CNC(=O)c4ccc(F)cc4F)C3)c12 (10 µM)	inactive: 0	inactive: 0	inactive: 0	inactive: 0	inactive: 0	inactive: 0	inactive: 0	inactive: 0	inactive: 0	inactive: 0
C[C@@H](Nc1ncnc2[nH]c(-c3ccc(O)cc3)cc12)c1ccccc1 (2.5 µM)	inactive: 0	inactive: 0	inactive: 0	inactive: 0	inactive: 0	inactive: 0	inactive: 0	inactive: 0	inactive: 0	inactive: 0
COCCOc1ccc2c(c1)ncn2-c1ccc2cccc(N3CCC(N)CC3)c2n1 (10 µM)	inactive: 0	inactive: 0	inactive: 0	inactive: 0	inactive: 0	inactive: 0	inactive: 0	inactive: 0	inactive: 0	active: 1
CNC(=O)c1ccc2c(c1)ncn2-c1ccc(CC(=O)OC(C)(C)C)cc1 (10 µM)	inactive: 0	inactive: 0	inactive: 0	inactive: 0	inactive: 0	inactive: 0	inactive: 0	inactive: 0	inactive: 0	inactive: 0
CC1=C(C(=O)Nc2cc3cn[nH]c3cc2F)C(c2ccc(C(F)(F)F)cc2)CC(=O)N1 (stereo not given) (10 µM)	inactive: 0	inactive: 0	inactive: 0	inactive: 0	inactive: 0	inactive: 0	inactive: 0	inactive: 0	inactive: 0	inactive: 0
Nc1nc2c(nc(Br)n2[C@@H]2O[C@@H]3COP(=O)(O)O[C@H]3[C@H]2O)c(=O)[nH]1 [8-Bromo-cGMP (sodium)] (10 µM)	inactive: 0	inactive: 0	inactive: 0	inactive: 0	inactive: 0	inactive: 0	inactive: 0	inactive: 0	inactive: 0	inactive: 0
Nc1nc(N)c2nc(-c3cccc(O)c3)c(-c3cccc(O)c3)nc2n1 (10 µM)	inactive: 0	inactive: 0	inactive: 0	inactive: 0	inactive: 0	inactive: 0	inactive: 0	inactive: 0	inactive: 0	inactive: 0
CN(C)c1ccc(-c2nc3ncc(Cl)c(N4CCN(CC(=O)Nc5nccs5)CC4)c3[nH]2)cc1 (2 µM)	inactive: 0	inactive: 0	inactive: 0	inactive: 0	inactive: 0	inactive: 0	inactive: 0	inactive: 0	inactive: 0	inactive: 0
O=Nc1c(-c2c(O)[nH]c3cc(Br)ccc23)[nH]c2ccccc12 [GSK 3 Inhibitor IX] (2.5 µM)	inactive: 0	inactive: 0	inactive: 0	inactive: 0	inactive: 0	inactive: 0	inactive: 0	inactive: 0	inactive: 0	inactive: 0
Cc1cc(Nc2cc(N)ncn2)c(=O)n2c1C(=O)NC21CCCCC1 [Tomivosertib] (10 µM)	inactive: 0	inactive: 0	inactive: 0	inactive: 0	inactive: 0	inactive: 0	inactive: 0	inactive: 0	inactive: 0	inactive: 0
O=C1OC(/C=C/c2ccccc2)=NC/1=C\c1cccnc1 (10 µM)	inactive: 0	inactive: 0	inactive: 0	inactive: 0	inactive: 0	inactive: 0	inactive: 0	inactive: 0	inactive: 0	inactive: 0
Oc1c(F)cc(-c2cnccc2-c2ccc(N3CCOCC3)cc2)cc1F (10 µM)	inactive: 0	inactive: 0	inactive: 0	inactive: 0	inactive: 0	inactive: 0	inactive: 0	inactive: 0	inactive: 0	inactive: 0
Cc1nc[nH]c1CN1CCN(C(=O)N[C@@H](CC(C)C)C(=O)O)[C@@H](Cc2ccccc2)C1=O (10 µM)	inactive: 0	inactive: 0	inactive: 0	inactive: 0	inactive: 0	inactive: 0	inactive: 0	inactive: 0	inactive: 0	inactive: 0
CN1CCC(CNc2ccc3ncc(-c4cccc(OC(F)(F)F)c4)n3n2)CC1 (2.5 µM)	inactive: 0	inactive: 0	inactive: 0	inactive: 0	inactive: 0	inactive: 0	inactive: 0	inactive: 0	inactive: 0	inactive: 0
Cc1cc(-n2c(=O)ccc3c[nH]c4nccc-4c32)ccc1F (10 µM)	inactive: 0	inactive: 0	inactive: 0	inactive: 0	inactive: 0	inactive: 0	inactive: 0	inactive: 0	inactive: 0	inactive: 0
Cn1c2cc([S+](C)[O-])sc2c2cnn(Cc3cccc(N)c3)c(=O)c21 (stereo not given) (2.5 µM)	inactive: 0	inactive: 0	inactive: 0	inactive: 0	inactive: 0	inactive: 0	inactive: 0	inactive: 0	inactive: 0	inactive: 0
Nc1nc(NCCNc2ncc(-n3ccnc3)c(-c3ccc(Cl)cc3Cl)n2)ccc1[N+](=O)[O-] (2.5 µM)	inactive: 0	inactive: 0	inactive: 0	inactive: 0	inactive: 0	inactive: 0	inactive: 0	inactive: 0	inactive: 0	inactive: 0
N#Cc1ccc2ncnc(NCCc3ccccc3)c2c1 [Senexin A] (10 µM)	inactive: 0	inactive: 0	inactive: 0	inactive: 0	inactive: 0	inactive: 0	inactive: 0	inactive: 0	inactive: 0	inactive: 0
Cc1cccc(COc2cccc(/C=C3\C(=O)NN(c4ccccc4)C3=O)c2)c1 (10 µM)	inactive: 0	inactive: 0	inactive: 0	inactive: 0	inactive: 0	inactive: 0	inactive: 0	inactive: 0	inactive: 0	inactive: 0
c1ccc(Cn2c(-c3ccc(OC[C@H](C4CCNCC4)n4c(-c5ccccc5)nc5ccccc54)cc3)nc3ccccc32)cc1 [Deltarasin] (2.5 µM)	inactive: 0	inactive: 0	inactive: 0	inactive: 0	inactive: 0	inactive: 0	inactive: 0	inactive: 0	inactive: 0	inactive: 0
Cc1c(C(=O)Nc2ccc(Oc3ccnc4[nH]cc(-c5ccccc5)c34)c(F)c2)c(=O)n(-c2ccc(F)cc2)n1C (10 µM)	inactive: 0	inactive: 0	inactive: 0	inactive: 0	inactive: 0	inactive: 0	inactive: 0	inactive: 0	inactive: 0	inactive: 0
O=C(Nc1cc(Cl)cc2c1[nH]c1cnccc12)c1cccnc1 (10 µM)	inactive: 0	inactive: 0	inactive: 0	inactive: 0	inactive: 0	inactive: 0	inactive: 0	inactive: 0	inactive: 0	inactive: 0
COc1c(O)cc2oc(-c3ccc(O)cc3)cc(=O)c2c1O [Hispidulin] (10 µM)	inactive: 0	inactive: 0	inactive: 0	inactive: 0	inactive: 0	inactive: 0	inactive: 0	inactive: 0	inactive: 0	inactive: 0
Cc1cccc(/C=N/Nc2cc(N3CCOCC3)n3nc(-c4ccncc4)cc3n2)c1 (10 µM)	inactive: 0	inactive: 0	inactive: 0	inactive: 0	inactive: 0	inactive: 0	inactive: 0	inactive: 0	inactive: 0	inactive: 0
O=C(O)c1cc(N(Cc2ccccc2O)Cc2cc(O)ccc2O)ccc1O [Lavendustin A] (10 µM)	inactive: 0	inactive: 0	inactive: 0	inactive: 0	inactive: 0	inactive: 0	inactive: 0	inactive: 0	inactive: 0	inactive: 0
O=c1cc(N2CCOCC2)oc2c(-c3ccc4c(c3)OCCO4)csc12 (2.5 µM)	inactive: 0	inactive: 0	inactive: 0	inactive: 0	inactive: 0	inactive: 0	inactive: 0	inactive: 0	inactive: 0	inactive: 0
NS(=O)(=O)c1ccc(Nc2nc(-c3cccc(-c4ccccc4)c3)c3[nH]cnc3n2)cc1 (10 µM)	inactive: 0	inactive: 0	inactive: 0	inactive: 0	inactive: 0	inactive: 0	inactive: 0	inactive: 0	inactive: 0	inactive: 0
Cc1cc(C(=O)NC(C)(C)C)cc(C#Cc2ccc3c4c(oc3c2)C(C)(C)c2cc(NS(C)(=O)=O)ccc2C4=O)n1 (10 µM)	inactive: 0	inactive: 0	inactive: 0	inactive: 0	inactive: 0	inactive: 0	inactive: 0	inactive: 0	inactive: 0	inactive: 0
C[C@@H]1O[C@@H](Oc2cc(O)c3c(=O)c(O[C@@H]4O[C@@H](C)[C@H](O)[C@@H](O)[C@H]4O)c(-c4ccc(O)cc4)oc3c2)[C@H](O)[C@H](O)[C@H]1O [Kaempferitrin] (10 µM)	inactive: 0	inactive: 0	inactive: 0	inactive: 0	inactive: 0	inactive: 0	inactive: 0	inactive: 0	inactive: 0	inactive: 0
Nc1ncnc2c1nc(Br)n2[C@@H]1O[C@@H]2COP(=O)(O)O[C@H]2[C@H]1O [8-Bromo-cAMP sodium salt] (10 µM)	inactive: 0	inactive: 0	inactive: 0	inactive: 0	inactive: 0	inactive: 0	inactive: 0	inactive: 0	inactive: 0	inactive: 0

Two entries from above, with bars between the fields.
Structure (SMILES) | kinase-Nluc reporter destabilization hit call (PDPK1) | kinase-Nluc reporter destabilization hit call (PIK4CA) | kinase-Nluc reporter destabilization hit call (PIK4CB) | kinase-Nluc reporter destabilization hit call (PLK1) | kinase-Nluc reporter destabilization hit call (PRKAA1) | kinase-Nluc reporter destabilization hit call (PRKCA) | kinase-Nluc reporter destabilization hit call (PTK2) | kinase-Nluc reporter destabilization hit call (PTK2B) | kinase-Nluc reporter destabilization hit call (RAF1) | kinase-Nluc reporter destabilization hit call [1]
Nc1nc(N)c2nc(-c3cccc(O)c3)c(-c3cccc(O)c3)nc2n1 (10 µM) | inactive: 0 | inactive: 0 | inactive: 0 | inactive: 0 | inactive: 0 | inactive: 0 | inactive: 0 | inactive: 0 | inactive: 0 | inactive: 0
Cc1cc(Nc2cc(N)ncn2)c(=O)n2c1C(=O)NC21CCCCC1 [Tomivosertib] (10 µM) | inactive: 0 | inactive: 0 | inactive: 0 | inactive: 0 | inactive: 0 | inactive: 0 | inactive: 0 | inactive: 0 | inactive: 0 | inactive: 0
